Values quoted from earlier work in patent US9937199B2, “Materials and methods for preventing and treating anastomotic leaks” (THE UNIVERSITY OF CHICAGO, priority 2012, dated 2018).
At least one structure is not confirmed: it was looked up by name or label, or the drawing left a doubt.

Conditions: intraluminal antibiotic via indwelling catheter vs saline; cited from earlier work

## CN(C)[C@@H]1C(O)=C(C(N)=O)C(=O)[C@@]2(O)C(O)=C3C(=O)c4c(O)cccc4[C@@](C)(O)[C@H]3C[C@@H]12 [tetracycline]
  anastomotic healing: complete anastomotic healing and recovery
